These results are taken from patent US9222143.

The chains behind the UniProt entries cited, without tags or fusion partners. Where a name states a change or a piece, a line headed by the entry shows the natural chain unless it says otherwise.
UniProt P05555: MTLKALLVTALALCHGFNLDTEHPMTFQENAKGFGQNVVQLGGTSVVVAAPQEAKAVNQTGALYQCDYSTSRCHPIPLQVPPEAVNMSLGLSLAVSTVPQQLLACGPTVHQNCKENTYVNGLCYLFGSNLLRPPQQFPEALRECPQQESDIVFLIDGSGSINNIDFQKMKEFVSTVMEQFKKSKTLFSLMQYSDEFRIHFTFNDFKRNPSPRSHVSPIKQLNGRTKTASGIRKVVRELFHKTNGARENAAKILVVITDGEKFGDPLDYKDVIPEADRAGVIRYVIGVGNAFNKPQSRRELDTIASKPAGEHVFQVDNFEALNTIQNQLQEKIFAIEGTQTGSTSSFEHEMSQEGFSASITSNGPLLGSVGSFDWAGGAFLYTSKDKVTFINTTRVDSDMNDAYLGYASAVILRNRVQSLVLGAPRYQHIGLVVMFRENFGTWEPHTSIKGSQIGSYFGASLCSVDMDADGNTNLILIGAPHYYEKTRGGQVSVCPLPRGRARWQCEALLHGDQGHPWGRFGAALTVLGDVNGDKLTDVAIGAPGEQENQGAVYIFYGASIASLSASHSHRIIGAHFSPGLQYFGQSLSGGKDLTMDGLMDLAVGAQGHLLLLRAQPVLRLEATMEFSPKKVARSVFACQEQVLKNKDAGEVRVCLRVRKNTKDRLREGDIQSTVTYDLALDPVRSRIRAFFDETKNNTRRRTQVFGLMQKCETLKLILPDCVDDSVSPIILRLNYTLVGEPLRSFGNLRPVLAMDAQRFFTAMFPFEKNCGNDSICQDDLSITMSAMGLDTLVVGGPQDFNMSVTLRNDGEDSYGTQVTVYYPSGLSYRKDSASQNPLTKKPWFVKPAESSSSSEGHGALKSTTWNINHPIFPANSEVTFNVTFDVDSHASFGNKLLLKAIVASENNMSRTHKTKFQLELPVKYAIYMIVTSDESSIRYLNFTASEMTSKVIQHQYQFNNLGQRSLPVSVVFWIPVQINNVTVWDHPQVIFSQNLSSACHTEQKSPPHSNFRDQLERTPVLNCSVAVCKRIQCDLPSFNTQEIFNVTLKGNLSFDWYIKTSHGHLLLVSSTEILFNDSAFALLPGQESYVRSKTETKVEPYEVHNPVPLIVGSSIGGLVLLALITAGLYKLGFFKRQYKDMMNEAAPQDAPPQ

The assay concerns the target CD11b/CD18 receptor on J774A.1 murine monocytes/macrophages (murine) (UniProt P05555). The experiment in a line: binding to CD11b/CD18-expressing J774A.1 cells (FIG. 2A).

Results are given in words; binding and its absence hold for the method and conditions named. Some binding calls cover weakened binding; strength is not graded here.

For the substance “CyaA/E570K+E581P (from UniProt J7QLC0 1-1706)”, the binding result is recorded as “binds”.
